Source: PMC12103576
These are yes or no findings as the source states them, for the method shown. For part of these data: Binding seen in cells or lysates may run through a third protein. Some binding calls cover weakened binding; strength is not graded here.

Sequences of proteins named here, by UniProt entry; tags and fusion partners are left off. Residues count along the entry.
UniProt Q13467, residues 27-585: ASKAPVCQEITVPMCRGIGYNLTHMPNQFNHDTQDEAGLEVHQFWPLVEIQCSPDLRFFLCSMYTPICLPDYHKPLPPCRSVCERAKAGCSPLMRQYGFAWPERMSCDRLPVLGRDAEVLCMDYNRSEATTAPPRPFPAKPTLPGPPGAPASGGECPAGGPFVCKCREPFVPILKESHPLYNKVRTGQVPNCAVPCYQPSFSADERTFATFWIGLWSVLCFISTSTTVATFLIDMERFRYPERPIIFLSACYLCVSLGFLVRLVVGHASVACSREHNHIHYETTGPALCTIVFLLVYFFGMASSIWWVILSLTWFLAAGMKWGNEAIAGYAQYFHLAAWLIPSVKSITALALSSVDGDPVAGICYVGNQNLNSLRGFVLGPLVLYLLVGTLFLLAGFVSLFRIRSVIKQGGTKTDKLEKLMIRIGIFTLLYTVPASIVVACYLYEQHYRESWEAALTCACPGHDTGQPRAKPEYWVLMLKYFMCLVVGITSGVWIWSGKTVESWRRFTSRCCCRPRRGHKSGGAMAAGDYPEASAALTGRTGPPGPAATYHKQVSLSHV
UniProt O75581, residues 20-1613: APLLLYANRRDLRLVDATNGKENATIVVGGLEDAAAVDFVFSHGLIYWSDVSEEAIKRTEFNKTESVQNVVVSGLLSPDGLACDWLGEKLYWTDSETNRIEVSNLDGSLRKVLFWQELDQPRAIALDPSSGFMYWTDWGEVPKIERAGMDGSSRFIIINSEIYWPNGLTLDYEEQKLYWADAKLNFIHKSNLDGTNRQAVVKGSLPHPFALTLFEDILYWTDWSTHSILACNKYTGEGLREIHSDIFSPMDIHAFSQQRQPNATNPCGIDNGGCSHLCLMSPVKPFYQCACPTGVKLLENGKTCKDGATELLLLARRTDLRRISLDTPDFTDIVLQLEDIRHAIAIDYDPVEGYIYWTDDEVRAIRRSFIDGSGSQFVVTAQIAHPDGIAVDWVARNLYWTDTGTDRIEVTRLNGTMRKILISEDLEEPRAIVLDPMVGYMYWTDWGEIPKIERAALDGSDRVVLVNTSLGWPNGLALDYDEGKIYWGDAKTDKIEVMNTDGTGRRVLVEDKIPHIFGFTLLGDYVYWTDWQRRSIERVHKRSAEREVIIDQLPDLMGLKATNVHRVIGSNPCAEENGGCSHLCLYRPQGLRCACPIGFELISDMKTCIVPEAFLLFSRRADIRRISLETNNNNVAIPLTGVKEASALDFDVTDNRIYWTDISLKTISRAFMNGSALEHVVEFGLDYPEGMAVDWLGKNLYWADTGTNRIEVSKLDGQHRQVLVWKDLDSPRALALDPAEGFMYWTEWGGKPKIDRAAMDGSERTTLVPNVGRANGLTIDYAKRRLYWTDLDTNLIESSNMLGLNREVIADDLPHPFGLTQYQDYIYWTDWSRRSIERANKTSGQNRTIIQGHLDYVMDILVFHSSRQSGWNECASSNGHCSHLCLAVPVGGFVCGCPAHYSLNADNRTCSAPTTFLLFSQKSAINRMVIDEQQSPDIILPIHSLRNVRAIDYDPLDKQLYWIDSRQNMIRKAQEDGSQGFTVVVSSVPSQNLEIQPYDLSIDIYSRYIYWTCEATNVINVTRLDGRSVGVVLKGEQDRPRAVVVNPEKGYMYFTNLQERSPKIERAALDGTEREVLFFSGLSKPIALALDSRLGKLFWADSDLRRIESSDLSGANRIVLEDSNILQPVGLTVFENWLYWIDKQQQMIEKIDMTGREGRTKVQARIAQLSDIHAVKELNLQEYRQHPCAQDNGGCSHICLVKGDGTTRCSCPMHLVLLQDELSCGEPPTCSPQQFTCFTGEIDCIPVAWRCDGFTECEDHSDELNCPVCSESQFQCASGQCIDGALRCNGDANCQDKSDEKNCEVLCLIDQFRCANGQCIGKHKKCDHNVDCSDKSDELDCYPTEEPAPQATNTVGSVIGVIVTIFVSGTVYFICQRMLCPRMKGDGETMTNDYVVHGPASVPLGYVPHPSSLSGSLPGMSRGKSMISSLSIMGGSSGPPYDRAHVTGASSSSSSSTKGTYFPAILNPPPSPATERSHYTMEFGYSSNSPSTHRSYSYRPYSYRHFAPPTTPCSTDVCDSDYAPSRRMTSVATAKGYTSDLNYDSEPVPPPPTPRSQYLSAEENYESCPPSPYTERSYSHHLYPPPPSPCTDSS
UniProt P56704, residues 19-352: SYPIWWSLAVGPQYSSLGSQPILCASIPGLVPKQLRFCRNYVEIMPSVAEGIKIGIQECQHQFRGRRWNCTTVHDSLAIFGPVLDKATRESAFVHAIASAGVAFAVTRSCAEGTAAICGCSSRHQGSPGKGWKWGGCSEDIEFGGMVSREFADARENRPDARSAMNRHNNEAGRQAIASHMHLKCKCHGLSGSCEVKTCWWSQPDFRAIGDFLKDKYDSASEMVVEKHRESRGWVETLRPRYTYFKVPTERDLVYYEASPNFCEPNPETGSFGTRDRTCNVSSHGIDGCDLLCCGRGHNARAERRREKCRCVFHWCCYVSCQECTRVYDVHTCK

Legend:
[1] = target: SNAP-FZD5 (human) (UniProt Q13467); assay: single-molecule tracking (TIRF, spatial confinement analysis); 100 nM recombinant WNT added to live CHO-K1 cells with SNAP-FZD5 and Halo-LRP6; confinement of each receptor read out, 37 °C; only the binder purified
[2] = target: FLAG-LRP6-Venus (human) (UniProt O75581); assay: FRET or BRET; kinetic NanoBRET (ΔBRET) in live HEK293 or ΔDVL1-3 cells, Nluc donor and Venus acceptor co-transfected with MESD, stimulated with 1000 ng/ml WNT-3A, 37 °C, HBSS + 0.1% BSA

binding [1] | Molecule | binding [2]
binds | human WNT-3A (from UniProt P56704 19-352) (ligand) | 
 | β2-adrenoceptor-Nluc (from UniProt P07550 1-413) (receptor) | no binding
binds | human WNT-16B (ligand, UniProt Q9UBV4-1 30-365) NWMWLGIASFGVPEKLGCANLPLNSRQKELCKRKPYLLPSIREGARLGIQECGSQFRHERWNCMITAAATTAPMGASPLFGYELSSGTKETAFIYAVMAAGLVHSVTRSCSAGNMTECSCDTTLQNGGSASEGWHWGGCSDDVQYGMWFSRKFLDFPIGNTTGKENKVLLAMNLHNNEAGRQAVAKLMSVDCRCHGVSGSCAVKTCWKTMSSFEKIGHLLKDKYENSIQISDKTKRKMRRREKDQRKIPIHKDDLLYVNKSPNYCVEDKKLGIPGTQGRECNRTSEGADGCNLLCCGRGYNTHVVRHVERCECKFIWCCYVRCRRCESMTDVHTCK | 
